Measured values from PubChem BioAssay AID2685 (National Center for Advancing Translational Sciences (NCATS), 2010).
Screen size: about 320,000 compounds; about 2,100 (0.66%) were called active. The inconclusive results got no clear call from the source; some entries with a clear call stand among them for comparison. Calls come from the whole dose curve; as a rule, active = well fitted inhibition curve with a large enough effect in the signal ratio, with a control signal flat (not every such curve was filed as active); inconclusive = small, poorly fitted or top-dose-only effect, or effect the other way, or a change in a side signal; inactive = flat fitted curve, though single readings scatter; the % refers to the signal ratio. Where the call is inconclusive, the potency comes from a doubtful curve fit.

assay: qHTS Assay for Lipid Storage Modulators in Drosophila S3 Cells; details: BODIPY lipid droplet fluorescence, 18-24 h, cells fed with added oleic acid; lipid storage change, negative = inhibition: at 46.1 µM (top of the series) unless noted
Outline: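 Drosophila S3 cells got compounds at several concentrations plus oleic acid (400 uM solution). Laser-scanning cytometry with 488 nm excitation read lipid droplets at 500-530 nm and cells at 575-640 nm. Percent activity was relative to 20 uM Triacsin C.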
% is set by controls: 0 for no effect and ±100 for the full control effect; potency is the fitted concentration of half-maximal effect.

Compound | Potency | lipid storage change, negative = inhibition
CCOc1ccc(C(=O)NC(=S)N(Cc2ccccc2)Cc2ccccc2)cc1 | inconclusive: 9.2 µM [falling, partial curve] | 
Cc1nnc(NC(=O)C2CCN(S(=O)(=O)c3cc([N+](=O)[O-])ccc3Cl)CC2)o1 |  | inconclusive: 3.54%
Cc1cc(C(=O)N(C)CC2CCCN(CCc3ccc(F)cc3)C2)c(C)o1 (stereo unspecified) |  | inconclusive: -100%
COc1ccc(CCN2CC(C(=O)NCc3ccco3)CC2=O)cc1OC (stereo unspecified) |  | inconclusive: -17.2%
O=[N+]([O-])c1ccccc1/C=N\N1CCN(Cc2ccccc2Cl)CC1 |  | inconclusive: -48.9%
CC(Sc1nnc(Cc2cccs2)n1C1CCCCC1)C(=O)NCc1ccco1 (stereo unspecified) | inconclusive: 11.6 µM [activator, partial curve, poor fit] | 
O=C(c1ccc(-c2ccccc2Cl)o1)N1CCN(c2ccccc2O)CC1 |  | inconclusive: 15% [at 0.0737 µM]
COc1ccc(COc2ccsc2C(=O)Nc2ccc(Cl)cc2)cc1 |  | inconclusive: 47.8%
COc1ccc(CCNC(=O)CSc2nnc(CNC(=O)c3cc(OC)c(OC)c(OC)c3)o2)cc1OC |  | inconclusive: 450%
O=C(Cn1cnnn1)Nc1cccc(S(=O)(=O)N2CCCCC2)c1 |  | inconclusive: -1.81%
COc1ccc(N2CCN(C(=S)Nc3ccc(F)cc3)CC2)cc1 | inconclusive: 20.6 µM [activator, single point] | 
O=C(CN(Cc1ccccc1)S(=O)(=O)c1ccccc1)N/N=C/c1ccc2c(c1)OCO2 |  | inconclusive: -12%
O=C(CC1C(=O)NCCN1C(=O)c1ccc(Cl)cc1)Nc1ccc(F)cc1 (stereo unspecified) |  | inconclusive: 24.4%
O=C(NC1CCCC1)C(c1c(F)cccc1Cl)N(C(=O)c1csnn1)C1CC1 (stereo unspecified) | active: 16.4 µM | 
O=C(Nc1ncccn1)C1CCCCC1 |  | inconclusive: 21%
O=C(Nc1cc(Cl)cc(Cl)c1)c1cccnc1 | inconclusive: 0.326 µM [falling, partial curve, poor fit] | 
Cc1ccc(O)c(NC(=O)c2cc(C)no2)c1 |  | inconclusive: -2.22%
CS(=O)(=O)c1ccc(Cl)c(NC(=O)COC(=O)CCCN2C(=O)c3cccc4cccc(c34)C2=O)c1 |  | inconclusive
CCOc1ccc(/C=N/NC(=O)c2nnn(-c3nonc3N)c2COc2ccc(F)cc2)cc1 |  | inconclusive: -2.82%
COCCn1c(=O)c2c(nc3n2CCCN3CCc2ccccc2)n(C)c1=O |  | inconclusive: 18.1%
Cc1cccc(C(C)C)c1NC(=O)c1cccnc1 |  | inconclusive: 21.5%
CCN(C(=O)/C=C/c1cc(OC)c(OC)c(OC)c1)C1CCCCC1 | inconclusive: 0.411 µM [activator, single point] | 
C=COCCNC(=O)Nc1ccc(Cl)cc1Cl |  | inconclusive: 12.5%
COc1cc2nc(C3CCC3)n(NC(=O)COc3ccccc3)c(=O)c2cc1OC |  | inconclusive: 84.7%
C[C@H](NC(=O)c1ccc(Cl)cc1)C(=O)NNC(=O)c1cccs1 |  | inconclusive: 54%
CCN(C(=O)c1coc(=O)c(Br)c1)c1ccc2c(c1)OCO2 |  | inconclusive: 11.7%

Compound | Potency | lipid storage change, negative = inhibition
COc1ccc(S(=O)(=O)N2CCOCC2)cc1NC(=O)COC(=O)C1CC2CCCC(C1)C2=O (stereo unspecified) | inconclusive: 4.61 µM [falling, partial curve, poor fit] | 
O=C(NCCC1=CCCCC1)c1ccc(Br)o1 | inconclusive: 29.1 µM [rising, single point] | 
COc1ccc(C(=O)N=c2nc3ccccn3s2)cc1 |  | inconclusive: 48%
C[C@H](Nc1ccc(C(F)(F)F)cc1[N+](=O)[O-])C(=O)O | inconclusive: 0.0052 µM [falling, full curve, poor fit] | 
Cc1nc2ccccc2c(=O)n1-c1ccc(F)c(NS(=O)(=O)c2ccccc2F)c1 |  | inconclusive: 33.7%
COc1ccc(-n2cnnc2SCc2csc(-c3ccccc3)n2)cc1 | inconclusive: 0.82 µM [activator, full curve] | 
COc1cc2nc(/C=C/c3cc(OC)c(OC)c(OC)c3)sc2cc1SC |  | inconclusive: -76.5%
CSCC[C@H](N)C(=O)NCC1CCC(C(=O)Nc2ccc3c(c2)OCO3)CC1 (stereo partly specified) |  | inconclusive: 15%
COC(=O)c1cccc(NC(=O)CCSc2ccc(Cl)cc2)c1C |  | inconclusive: 12.2%
COc1ccc(NC(=O)NC2(C(=O)N3CCN(C)CC3)CCCCC2)cc1 |  | inconclusive: -52.2%
Cc1ccc(S(=O)(=O)C2(C(=O)NCc3ccccc3Cl)CC2)cc1 |  | inconclusive: -17%
O=[N+]([O-])c1cccc(S(=O)(=O)N2CCN(S(=O)(=O)N3CCOCC3)CC2)c1 | inconclusive: 3.66 µM [activator, full curve] | 
COCCNC(=O)c1ccccc1N(Cc1ccccc1)S(=O)(=O)c1ccc(C)cc1 |  | inconclusive: 0.794%
CSc1nc(SCC(N)=O)c2c3c(sc2n1)CN(C)CC3 |  | inconclusive: 14%
CN1C(=O)N(CC(=O)N2CCN(S(=O)(=O)Cc3ccccc3)CC2)C(=O)C12CCCCC2 |  | inconclusive: -5%
COc1ccccc1-n1c(CNC(=O)c2ccco2)nnc1SCC(=O)Nc1nccs1 | inconclusive: 0.082 µM [activator, full curve, poor fit] | 
Cc1cccc(C)c1NS(=O)(=O)c1ccc(F)cc1 |  | inconclusive: 12.5%
CCc1ccc(N(C(=O)CNC(=O)c2ccco2)C(C(=O)NC2CCCC2)c2ccncc2)cc1 (stereo unspecified) |  | inconclusive: 33%
O=C1CCN(Cc2ccccc2)CCN1CCO |  | inactive
COC(=O)c1ccccc1NC(=O)CN(c1c(C)cccc1C)S(C)(=O)=O | inconclusive: 29.1 µM [falling, single point] | 
Cc1cc(C)n2nc(C(=O)OCC(=O)c3cc(C)n(C)c3C)nc2n1 | inconclusive: 16.4 µM [rising, partial curve] | 
CCOc1cc(CNCCSc2nnnn2C)cc(Br)c1OCc1ccccc1 | inconclusive: 5.17 µM [activator, partial curve] | 
Cc1cc(C)nc(/N=C(\N)Nc2ccc(CC(=O)OC(C)C)cc2)n1 | inconclusive: 14.6 µM [falling, single point] | 
Cc1cc(C)nc(-n2nc(C)c(C3(O)C(=O)Nc4ccc(F)cc43)c2N)n1 (stereo unspecified) |  | inconclusive: 8.83%
Cc1ccc(NC(=O)c2cc(S(=O)(=O)NCCc3ccccc3)ccc2F)cc1Cl | inconclusive: 29.1 µM [falling, single point] | 
CCN(CC(=O)Nc1ccc2c(c1)OCCO2)C(=O)c1ccc(S(=O)(=O)N(C)C)cc1 |  | inconclusive: 30.8% [at 0.0737 µM]

Compound | Potency | lipid storage change, negative = inhibition
Cc1cc(C(=O)NCc2ccccc2Br)no1 |  | inconclusive: 34.6%
CCOC(=O)C1CCN(C(=O)COC(=O)CSc2ccc(C(N)=O)cc2[N+](=O)[O-])CC1 |  | inconclusive: 15.1%
COc1ccc2c3n(nc2c1)CCN=C3c1ccc(C)cc1 |  | inconclusive: 19.4%
CCn1nnnc1SCC(=O)N1CCCCC1 |  | inconclusive
CCOC(=O)N1CCN(C(=O)CSc2cc(C)nc3c(-c4ccccc4OC)c(C)nn23)CC1 |  | inconclusive: 71.8%
O=S(=O)(c1ccccc1)N1CCn2c(nc3ccccc32)C1 |  | inconclusive: -49.8%
COCc1cc(=O)n2[nH]c(SC)nc2n1 | inconclusive: 11.6 µM [falling, partial curve] | 
CCOC(=O)Cn1c(=O)oc2cc(S(=O)(=O)NC3CCCc4ccccc43)ccc21 (stereo unspecified) | inconclusive: 0.13 µM [falling, full curve] | 
S=C(c1ccc(-c2ccc(Cl)cc2Cl)o1)N1CCCCC1 | inconclusive: 29.1 µM [cytotoxic, single point] | 
Clc1cccc(Cl)c1Cn1cnc(=NCc2ccco2)c2[nH]cnc21 |  | inconclusive: 4.65%
COc1ccc(NC(=O)C2CCCNC2)cc1OCC(C)C (stereo unspecified) |  | inconclusive: 8.11%
O=C(c1ccc2c(=O)n(-c3ccccc3)c(=O)[nH]c2c1)N1CCCCC1 |  | inconclusive: -77.7%
O=C(CSc1nnc(SCc2ccc(Cl)cc2)s1)N/N=C/c1c(Cl)cccc1Cl |  | inconclusive: 7.51%
COc1cc(/C=N/NC(=O)CC2C(=O)NN=C2C)ccc1O (stereo unspecified) |  | inconclusive: 9.02%
CC(C)OC(=O)c1ccc(COc2ccc3ccc(=O)oc3c2)o1 | inconclusive: 9.2 µM [activator, partial curve, poor fit] | 
c1ccc(C[C@H]2CNCCN2CCc2cccc3ccccc23)cc1 |  | inactive
Cc1cccc(N2CCN(C(=O)Cc3c(C(=O)O)[nH]c4ccc(Cl)cc34)CC2)c1C | inconclusive: 18.4 µM [falling, single point] | 
COc1ccccc1NC(=S)N=Nc1c(O)[nH]c2ccc(Br)cc12 |  | inconclusive: -10.9%
COc1ccc2c3c(c(=O)oc2c1OCC(=O)O)CCCC3 |  | inconclusive: -14.5%
N#CC1=C(N)N(c2ccccc2C#N)C2=C(C(=O)CCC2)C1c1ccsc1 (stereo unspecified) | inconclusive: 1.03 µM [activator, full curve] | 
O=C(O)c1sccc1Oc1ccc(F)cc1[N+](=O)[O-] |  | inconclusive: -7.24%
CCCCN1C[C@H](C)[C@@H](CC(=O)NCc2ccccc2)C1=O | inconclusive: 0.58 µM [activator, single point] | 
CC(C)C(=O)Nc1ccc2nn(-c3ccc(F)cc3)nc2c1 | inconclusive: 16.4 µM [falling, single point] | 
Cc1nn(-c2ccccc2)c(C)c1C(=O)OCC(=O)Nc1cccc(S(N)(=O)=O)c1 | inconclusive: 0.13 µM [falling, full curve, poor fit] | 

An excerpt of these results, tab-delimited.
Compound	Potency	lipid storage change, negative = inhibition
CCCCN1C[C@H](C)[C@@H](CC(=O)NCc2ccccc2)C1=O	inconclusive: 0.58 µM [activator, single point]	
Cc1nn(-c2ccccc2)c(C)c1C(=O)OCC(=O)Nc1cccc(S(N)(=O)=O)c1	inconclusive: 0.13 µM [falling, full curve, poor fit]	
